Source: PubChem BioAssay AID248 (DTP/NCI, 2004)
The list is a part of this screen's results and no random one: it gathers some chemical classes. Other doses and runs of a compound may be missing. T/C is the treated group as % of the vehicle group. Some doses have a count of surviving animals in place of a T/C: the source holds a T/C of zero for them, seemingly a mark for toxic or unscored doses. Survivors were counted at the toxicity check, usually on the fifth day, unless a day is given; later deaths do not show. Schedules are NCI's codes, taken here to give the interval after Q, in days (D) or hours (H), and the number of doses after X. Some schedules carry Z or #; the key to these is not given. Where survival is the endpoint, this PubChem deposit counts one and a half times the control or more as active, and values a quarter to a half above the control carry no call in these data; other NCI protocols may use other cut-offs. Some entries hold several experiments; the values are given in rising order. Some T/C values are followed by the survivors on the day toxicity was checked, most often the fifth; without a count or a note in brackets, all were alive then.

Tested on: L1210 leukemia ip in BDF1 mice, survival T/C
Assay: NCI In Vivo Anticancer Drug Screen. Data for tumor model L1210 Leukemia (intraperitoneal) in B6D2F1 (BDF1) mice
Details: T/C endpoint: mean survival time, higher T/C = longer survival
[1] = dose: 25.0 mg/kg/injection, schedule: Q04DX003 (ip), vehicle: saline with Tween-80
[2] = dose: 50.0 mg/kg/injection, schedule: Q04DX003 (ip), vehicle: saline with Tween-80
[3] = dose: 100.0 mg/kg/injection, schedule: Q04DX003 (ip), vehicle: saline with Tween-80

O=C1c2cc([N+](=O)[O-])ccc2-c2c1cc([N+](=O)[O-])cc2[N+](=O)[O-].Oc1cccc2ccc3ccc4ccccc4c3c12
T/C (dose: 50.0 mg/kg/injection, schedule: Q04DX002 (ip), vehicle: Klucel (hydroxypropylcellulose) (HPC)): 97 % of control | T/C (dose: 100.0 mg/kg/injection, schedule: Q04DX002 (ip), vehicle: Klucel (hydroxypropylcellulose) (HPC)): 93 % of control | T/C (dose: 200.0 mg/kg/injection, schedule: Q04DX002 (ip), vehicle: Klucel (hydroxypropylcellulose) (HPC)): 97 % of control

Cc1ccc2c(c1)C[P+](c1ccccc1)(c1ccccc1)CC2C.F[P-](F)(F)(F)(F)F (stereo unspecified)
T/C [1]: 96 % of control | T/C [2]: 93 % of control | survivor count [3]: 0 of 3

O=C(O)/C=C\c1ccccc1N(CCCl)CCCl
T/C (dose: 1.5 mg/kg/injection, schedule: Q01DX015 (ip), vehicle: carboxymethylcellulose (CMC)): 95 % of control | T/C (dose: 2.9 mg/kg/injection, schedule: Q01DX Z (ip), vehicle: methylcellulose (MC)): 96 % of control | T/C (dose: 3.0 mg/kg/injection, schedule: Q01DX015 (ip), vehicle: carboxymethylcellulose (CMC)): 86 % of control | T/C (dose: 4.4 mg/kg/injection, schedule: Q01DX Z (ip), vehicle: methylcellulose (MC)): 116 % of control | T/C (dose: 6.0 mg/kg/injection, schedule: Q01DX015 (ip), vehicle: carboxymethylcellulose (CMC)): 105 % of control | T/C (dose: 6.25 mg/kg/injection, schedule: Q01DX001 (ip), vehicle: carboxymethylcellulose (CMC)): 97 % of control | T/C (dose: 6.6 mg/kg/injection, schedule: Q01DX Z (ip), vehicle: methylcellulose (MC)): 121 and 135 % of control | T/C (dose: 10.0 mg/kg/injection, schedule: Q01DX Z (ip), vehicle: methylcellulose (MC)): 124 and 136 % of control | T/C (dose: 12.0 mg/kg/injection, schedule: Q01DX015 (ip), vehicle: carboxymethylcellulose (CMC)): 106 % of control | T/C (dose: 12.5 mg/kg/injection, schedule: Q01DX001 (ip), vehicle: carboxymethylcellulose (CMC)): 110 % of control | T/C (dose: 14.8 mg/kg/injection, schedule: Q01DX Z (ip), vehicle: other): 121 % of control | T/C (dose: 15.0 mg/kg/injection, schedule: Q01DX Z (ip), vehicle: methylcellulose (MC)): 119 % of control | T/C (dose: 22.2 mg/kg/injection, schedule: Q01DX Z (ip), vehicle: other): 111 % of control | T/C (dose: 23.0 mg/kg/injection, schedule: Q01DX Z (ip), vehicle: methylcellulose (MC)): 164 % of control | T/C (dose: 24.0 mg/kg/injection, schedule: Q01DX015 (ip), vehicle: carboxymethylcellulose (CMC)): 114 % of control | T/C (dose: 25.0 mg/kg/injection, schedule: Q01DX001 (ip), vehicle: carboxymethylcellulose (CMC)): 119 % of control | survivor count (dose: 33.3 mg/kg/injection, schedule: Q01DX Z (ip), vehicle: other): 1 of 6 | T/C (dose: 48.0 mg/kg/injection, schedule: Q01DX015 (ip), vehicle: carboxymethylcellulose (CMC)): 160 % of control | survivor count (dose: 50.0 mg/kg/injection, schedule: Q01DX Z (ip), vehicle: other): 0 of 6

CCOP(=S)(OCC)SCCCl
T/C (dose: 12.5 mg/kg/injection, schedule: Q04DX003 (ip), vehicle: saline with Tween-80): 100 % of control | T/C [1]: 104 % of control | T/C [2]: 103 % of control [5 of 6 alive] | survivor count [3]: 3 of 6 | survivor count (dose: 200.0 mg/kg/injection, schedule: Q04DX003 (ip), vehicle: saline with Tween-80): 0 of 6 | survivor count (dose: 400.0 mg/kg/injection, schedule: Q04DX003 (ip), vehicle: saline with Tween-80): 0 of 6
